According to US20200270352A1:
Changes are numbered by the printed parent chain. No constants are given. Whether binding was seen depends on the method and setting. A result given as binding can be weak or reduced; the word gives no strength.

B1: humanized antibody hz208F2 VH3/VL3 (hz208F2 H026/L024) (antibody, human IgG1, kappa, V domains shown)
VH: QVQLVQSGAEVKKPGASVKMSCKASGYTFTSYYIYWVKQAPGQGLEWLGWIWPGDGSTKYNEKFQGRVTLTADKSSNTAYMFLSSLRSEDTAVYFCASPMITPNYAMDYWGQGTLVTVSS
VL: DIQMTQSPSSLSASVGDRVTISCRASQDISKYLNWYQQKPGKAPKLLIYYTSRLHSGVPSRFSGRGSGTDYSLTISNLQPEDFATYFCQQGSTLPYTFGGGTKVEIKR
B2: humanized antibody hz208F2 H070/L018 (antibody, human IgG1, kappa, V domains shown)
VH: QVQLVQSGAEVKKPGASVKVSCKASGYTFTSYYMHWVRQAPGQGLEWMGWIWPGDGSTKYAQKFQGRVTMTRDTSTSTVYMELSSLRSEDTAVYYCASPMITPNYAMDYWGQGTLVTVSS
VL: B1 VL with S22T, H55Q, N77S
B3: humanized antibody hz208F2 H037/L018 (antibody, human IgG1, kappa, V domains shown)
VH: B2 VH with T74K, T76S, Y95F
VL: B1 VL with S22T, H55Q, N77S
B4: humanized antibody hz208F2 H052/L018 (antibody, human IgG1, kappa, V domains shown)
VH: B2 VH with Y95F
VL: B1 VL with S22T, H55Q, N77S
B5: humanized antibody hz208F2 H051/L018 (antibody, human IgG1, kappa, V domains shown)
VH: B2 VH with T76S, S77N, Y95F
VL: B1 VL with S22T, H55Q, N77S
B6: humanized antibody hz208F2 H076/L018 (antibody, human IgG1, kappa, V domains shown)
VH: B2 VH with M34I
VL: B1 VL with S22T, H55Q, N77S
B7: humanized antibody hz208F2 H052/L021 (antibody, human IgG1, kappa, V domains shown)
VH: B2 VH with Y95F
VL: B1 VL with S22T, Y71F, N77S
B8: humanized antibody hz208F2 H057/L018 (antibody, human IgG1, kappa, V domains shown)
VH: B2 VH with M34I, T74K, S77N
VL: B1 VL with S22T, H55Q, N77S
B9: humanized antibody hz208F2 H068/L018 (antibody, human IgG1, kappa, V domains shown)
VH: B2 VH with S77N, Y95F
VL: B1 VL with S22T, H55Q, N77S
B10: humanized antibody hz208F2 H076/L021 (antibody, human IgG1, kappa, V domains shown)
VH: B2 VH with M34I
VL: B1 VL with S22T, Y71F, N77S
B11: humanized antibody hz208F2 H071/L018 (antibody, human IgG1, kappa, V domains shown)
VH: B2 VH with S77N
VL: B1 VL with S22T, H55Q, N77S
B12: humanized antibody hz208F2 H049/L021 (antibody, human IgG1, kappa, V domains shown)
VH: B2 VH with T74K, T76S
VL: B1 VL with S22T, Y71F, N77S
B13: humanized antibody hz208F2 H049/L018 (antibody, human IgG1, kappa, V domains shown)
VH: B2 VH with T74K, T76S
VL: B1 VL with S22T, H55Q, N77S
B14: humanized antibody hz208F2 H037/L021 (antibody, human IgG1, kappa, V domains shown)
VH: B2 VH with T74K, T76S, Y95F
VL: B1 VL with S22T, Y71F, N77S
B15: humanized antibody hz208F2 H077/L018 (antibody, human IgG1, kappa, V domains shown)
VH: B2 VH with M34I, Y95F
VL: B1 VL with S22T, H55Q, N77S
B16: humanized antibody hz208F2 H047/L018 (antibody, human IgG1, kappa, V domains shown)
VH: B2 VH with M34I, T76S, S77N
VL: B1 VL with S22T, H55Q, N77S

Target: monkey IGF-1R on COS-7 cells (African green monkey kidney) (monkey (African green monkey))
Assay: FACS titration on COS-7

Row | binding | Binder
1 | binds | B1

Target: monkey IGF-1R on COS-7 cells (African green monkey kidney) (monkey (African green monkey))
Assay: FACS on Cos-7

Row | binding | Binder
2 | binds | B1
3 | binds | B2
4 | binds | B3
5 | binds | B4
6 | binds | B5
7 | binds | B6
8 | binds | B7
9 | binds | B8
10 | binds | B9
11 | binds | B10
12 | binds | B11
13 | binds | B12
14 | binds | B13
15 | binds | B14
16 | binds | B15
17 | binds | B16
